Assay results published in patent US20070299129A1, “Compounds and derivatives for the treatment of medical conditions by modulating hormone-sensitive lipase activity” (DEVIRIS INC., priority 2006, published 2007).
For at least one compound, name, drawing or mass did not settle the structure.

Biological target: T1, recombinant His-HSL (hormone-sensitive lipase) (Rattus norvegicus, UniProt P15304)
T1 construct: cloning full-length rat HSL cDNA into the SmaI site of pAcHLT-A; His6 (N); made in house; host or cells: Sf21 insect cells (baculovirus, BaculoGold)
T1 sequence (P15304 1-768 isoform P15304-2): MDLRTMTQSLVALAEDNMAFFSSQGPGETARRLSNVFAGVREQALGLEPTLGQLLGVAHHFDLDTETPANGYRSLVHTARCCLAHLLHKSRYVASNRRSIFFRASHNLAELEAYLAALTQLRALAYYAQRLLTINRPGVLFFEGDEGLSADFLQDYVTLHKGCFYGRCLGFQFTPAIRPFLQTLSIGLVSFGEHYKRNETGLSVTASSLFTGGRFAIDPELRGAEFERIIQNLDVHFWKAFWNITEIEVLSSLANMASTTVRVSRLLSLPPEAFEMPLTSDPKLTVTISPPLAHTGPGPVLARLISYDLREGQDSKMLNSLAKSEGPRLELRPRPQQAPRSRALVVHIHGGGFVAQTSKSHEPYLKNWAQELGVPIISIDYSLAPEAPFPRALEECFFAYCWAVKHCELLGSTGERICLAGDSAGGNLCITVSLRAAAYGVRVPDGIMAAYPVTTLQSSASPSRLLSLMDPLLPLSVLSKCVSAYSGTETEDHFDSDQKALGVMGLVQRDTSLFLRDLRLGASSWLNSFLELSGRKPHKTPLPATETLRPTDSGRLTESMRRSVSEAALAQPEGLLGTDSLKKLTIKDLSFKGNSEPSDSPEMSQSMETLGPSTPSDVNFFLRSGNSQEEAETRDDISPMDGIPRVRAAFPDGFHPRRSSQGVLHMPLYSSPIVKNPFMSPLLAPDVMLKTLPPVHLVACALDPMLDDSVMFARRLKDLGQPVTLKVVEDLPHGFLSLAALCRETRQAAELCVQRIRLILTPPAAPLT
Assay: Assay for potency of inhibition on HSL activity (neutral cholesteryl ester hydrolase activity, cholesteryl [1-14C]oleate), Example 1
Assay type: biochemical
Details: experiment of Example 1 with oleuropein and hydroxytyrosol as inhibitors
Experimental: Production of Recombinant HSL: Recombinant His-HSL was generated by cloning full-length rat HSL cDNA into the SmaI site of pAcHLT-A containing a His6 tag. pAcHLT-A-HSL (5 μg) was co-transfected into Sf21 cells with 0.5 μg of BaculoGold™ DNA using the transfection kit from the manufacturer. The titer of the recombinant virus was determined using an end point dilution assay, and the virus was re-amplified to a final titer of 1.5×10^7 pfu/ml. To produce recombinant proteins, Sf21 cells were grown in 150 mm Petri dishes and each 2×10^7 cells were infected with 100 μl of the high titer recombinant virus; cells were harvested three days after infection. After harvesting and cell extraction, His-HSL was purified on a Ni-agarose column.
Preparation of Substrate for Neutral Cholesteryl Ester Hydrolase Activity Assay: HSL activity was determined as neutral cholesteryl ester hydrolase activity using a cholesteryl[1-14C]oleate emulsion for measurement of cellular activity, as described previously. Substrate for the cholesteryl ester assay was prepared by adding 1.25 μCi cholesteryl [1-14C]oleate (purified by thin-layer chromatography), 0.043 mmol phosphatidylcholine, and 0.011 mmol cholesteryl oleate into 2.5 mL of 100 mM potassium phosphate buffer (pH 7.0) containing 5 mM sodium taurocholate. […]

Row | Structure (SMILES) | anti-HSL activity (in words)
1 | OCCc1ccc(O)c(O)c1 [hydroxytyrosol, reference compound] | did not demonstrate anti-HSL activity
2 | C/C=C1/[C@H](O[C@@H]2O[C@H](CO)[C@@H](O)[C@H](O)[C@H]2O)OC=C(C(=O)OC)[C@H]1CC(=O)OCCc1ccc(O)c(O)c1 [oleuropein, reference compound] | did not demonstrate anti-HSL activity
